# Primary screen of a compound library

Sequences of proteins named here, by UniProt entry; tags and fusion partners are left off.
UniProt E9BF75, entry or part of it: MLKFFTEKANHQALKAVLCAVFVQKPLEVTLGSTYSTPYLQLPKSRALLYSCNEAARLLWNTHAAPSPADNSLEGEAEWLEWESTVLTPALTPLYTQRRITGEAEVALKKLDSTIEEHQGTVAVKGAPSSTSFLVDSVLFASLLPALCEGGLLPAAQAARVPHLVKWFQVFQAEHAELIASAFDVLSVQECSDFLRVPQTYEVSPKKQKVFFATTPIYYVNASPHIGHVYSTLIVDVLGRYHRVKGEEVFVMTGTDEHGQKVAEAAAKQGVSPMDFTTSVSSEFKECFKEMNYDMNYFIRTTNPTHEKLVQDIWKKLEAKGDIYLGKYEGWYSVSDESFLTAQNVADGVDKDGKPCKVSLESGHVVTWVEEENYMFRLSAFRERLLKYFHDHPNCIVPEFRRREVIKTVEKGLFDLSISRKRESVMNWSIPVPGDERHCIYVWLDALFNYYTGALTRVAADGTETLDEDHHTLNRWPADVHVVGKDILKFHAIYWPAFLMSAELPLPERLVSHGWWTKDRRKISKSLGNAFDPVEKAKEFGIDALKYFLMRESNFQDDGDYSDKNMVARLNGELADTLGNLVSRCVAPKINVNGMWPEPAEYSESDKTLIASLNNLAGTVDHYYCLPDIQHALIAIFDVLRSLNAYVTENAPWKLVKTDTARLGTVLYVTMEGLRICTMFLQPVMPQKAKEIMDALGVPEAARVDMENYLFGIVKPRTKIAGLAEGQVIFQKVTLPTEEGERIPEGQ

From ChEMBL document CHEMBL3988442, “University of Dundee, Small-Polar-MMV Screening Library” (2021).

A: 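Methionyl-tRNA synthetase (putative), Leishmania donovani (UniProt E9BF75). Primary screen of methionyl-tRNA synthetase; the read-out is not stated. The test concentration is not given. The values are filed as inhibition. Size under these conditions: about 68,000 compounds, about 24 of them at 50% or above in at least one test.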
B: 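Assay on Mycobacterium tuberculosis, filed only as a heat shock assay from Cornell; the read-out is not stated. The concentration is filed as 10 mM, unlikely as a test dose, so the dose is not known. Higher reads as stronger inhibition (inferred: compounds with an IC50 in retests scored well above the rest). About 69,000 compounds were tested under these conditions; 1.4% (about 930) showed 50% or more at least once.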

All values are in %.
How 0% and 100% were set is not recorded. Most values in the screen are low, and negative values occur.
Compounds were drawn at random from those tested, without regard to their results.
A dash means the value is not listed here; it may have been measured.

- CCCS(=O)(=O)N1CCO[C@H]2[C@H](OCc3ccccn3)CC[C@@H]21 | A: 16.19%
- CC(C)Oc1cc(N2CCC(C(N)=O)CC2)nc(N)n1 | A: 16.85%; B: -0.879%
- O=C(CCC(=O)Nc1nnc(C(F)(F)F)s1)NCC1CCCO1 (stereo not drawn) | A: 11.66%; B: 14.98%
- Cn1cc(-c2nc(CN3CCn4c(nnc4C4CC4)C3)cs2)cn1 | A: 0.3745%; B: 7.422%
- COc1ccc(N2Cc3nc(=O)n(C(C)C)n3C2=O)cc1 | A: 14.85%; B: 5.604%
- O=C1CCCN1CC1CN(CC2CCOCC2)Cc2nccn2C1 (stereo not drawn) | A: 12.06%
- Cc1cc(C(F)(F)F)nn1CCNC(=O)C(C)n1ccnc1C(C)C (stereo not drawn) | A: -1.344%; B: -18.09%
- COC(=O)c1ccc(S(=O)(=O)NC2CNC(=O)C2)cc1 (stereo not drawn) | A: 15.77%; B: 13.63%
- Cc1cc(C)c(CNC(=O)NCC2Cc3ccccc3O2)c(=O)[nH]1 (stereo not drawn) | A: 14.25%; B: 1.525%
- COCC1CC2(CCN(Cc3cccnc3)CC2)CN1c1ncccn1.O=C(O)C(F)(F)F.O=C(O)C(F)(F)F.O=C(O)C(F)(F)F (stereo not drawn) | B: -9.801%
- Cc1cnn(CCC(=O)N(CC2CN(C)CCO2)c2nccs2)c1 (stereo not drawn) | A: 8.01%; B: 3.613%
- CCS(=O)(=O)N1CCC2(CC1)CC(CC(=O)NC1CC1)c1ccccc12 (stereo not drawn) | A: 8.125%; B: -41.65%
- Cc1nnc2n1CCN(CC(=O)NC(C)c1cc3ccccc3o1)C2 (stereo not drawn) | A: 7.483%; B: -8.019%
- CCc1cnc(CN(C(C)=O)C2CCN(Cc3nccn3C)C2)o1 (stereo not drawn) | A: 4.762%; B: 18.68%
- c1csc(-c2noc(CN3CCCCC3Cn3cccn3)n2)c1 (stereo not drawn) | A: 19.94%; B: -6.134%
- COCC(c1cccc(C(F)(F)F)c1)N(C)C(=O)c1cnccn1 (stereo not drawn) | A: 15.85%; B: -15.67%
- CCN1CCCC1CNC(=O)c1cc(COc2ccccc2F)[nH]n1 (stereo not drawn) | A: 12.3%; B: 14.54%
- O=C(O)C(F)(F)F.[H][C@@]12CCN(Cc3c(C)noc3C)C[C@]1(C(=O)NCC1CC1)CCO2 | B: -30.17%
- O=c1c2cccc(C(F)(F)F)c2ncn1CCN1CCNCC1 | A: 18.01%; B: -12.11%
- OCc1c(Cl)ncn1-c1ccc(F)cc1 | A: 12.89%; B: -1.963%
- CC(C)C(=O)Nc1cc(C(=O)NC2CC(C)(C)NC(C)(C)C2)nn1C | A: 9.023%; B: -49.16%
- CCCc1cc(=O)n(CC(N)=O)c(-n2nc(C)cc2C)n1 | A: 7.843%; B: 28.09%
- COCCc1nc(CN2CC(C)(c3ccccc3)CCC2=O)no1 (stereo not drawn) | A: 9.091%; B: 4.28%
- N[C@H]1CN(C(=O)c2ccc(CO)cc2)C[C@@H]1C1CC1 | A: 11.15%; B: 4.827%
- CN(CC1=CCCN(Cc2cccc(C#N)c2)C1)C(=O)c1ccco1 | A: 17.87%; B: 3.274%
- Cc1noc(NC(=O)c2ccc(C)c(F)c2)n1 | A: 12.68%; B: 105.5%
- Cn1cc(NC(=O)c2cccc(-n3cnnn3)c2)cn1 | A: 6.178%; B: 6.702%
- CC(C)n1cnnc1CN(C)CC1CCOC1 (stereo not drawn) | A: 16.55%; B: 29.49%
- O=C(c1ccc(F)cc1)N1CCC2(CCCN2CC2CC2)CC1 | A: 10.44%
- O=S(=O)(C1CC1)N1CCO[C@@H]2CC(COCc3cccnc3)C[C@H]21 (stereo partly drawn) | A: 16.94%
- O=C(N[C@@H]1CCC[C@@H](N2CCCC2)[C@@H]1O)c1cnn2cccnc12 | A: 10.93%; B: -11.84%
- O=C(CCC(=O)c1ccccc1)NC1(C(=O)NCC2CC2)CCCC1 | A: 13.54%; B: -4.796%
- CC(C)c1sc(Br)nc1C(=O)NCc1ccncc1 | A: 11.32%; B: -12.58%

4 of the entries, repeated:

| compound | A | B |
|---|---|---|
| `OCc1c(Cl)ncn1-c1ccc(F)cc1` | 12.89 | -1.963 |
| `c1csc(-c2noc(CN3CCCCC3Cn3cccn3)n2)c1` (stereo not drawn) | 19.94 | -6.134 |
| `CCCS(=O)(=O)N1CCO[C@H]2[C@H](OCc3ccccn3)CC[C@@H]21` | 16.19 | - |
| `CCCc1cc(=O)n(CC(N)=O)c(-n2nc(C)cc2C)n1` | 7.843 | 28.09 |